# Results are given in words; binding and its absence hold for the method and conditions named. In cells and extracts the contact can be indirect. Some results given as binding are weak or reduced against the parent protein; the word gives no strength.
# Amino acid sequences for entries named in this document (tags omitted).
# UniProt Q86U44: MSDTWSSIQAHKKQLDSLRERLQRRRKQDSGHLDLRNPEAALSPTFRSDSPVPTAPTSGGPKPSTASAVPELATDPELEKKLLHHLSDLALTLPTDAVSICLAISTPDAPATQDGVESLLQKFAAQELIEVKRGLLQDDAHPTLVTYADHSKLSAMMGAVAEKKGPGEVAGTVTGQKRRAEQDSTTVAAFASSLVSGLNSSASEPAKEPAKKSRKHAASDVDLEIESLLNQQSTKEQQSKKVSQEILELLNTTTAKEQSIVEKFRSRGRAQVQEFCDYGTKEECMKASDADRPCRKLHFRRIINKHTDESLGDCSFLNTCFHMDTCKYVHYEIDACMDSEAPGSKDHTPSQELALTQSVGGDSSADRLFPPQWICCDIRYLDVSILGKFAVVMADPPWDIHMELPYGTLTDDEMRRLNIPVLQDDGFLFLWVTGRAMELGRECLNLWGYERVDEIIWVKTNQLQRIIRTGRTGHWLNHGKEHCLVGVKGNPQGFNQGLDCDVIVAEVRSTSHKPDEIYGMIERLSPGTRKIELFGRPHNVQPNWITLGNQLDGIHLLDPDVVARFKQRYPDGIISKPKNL
# UniProt P19474: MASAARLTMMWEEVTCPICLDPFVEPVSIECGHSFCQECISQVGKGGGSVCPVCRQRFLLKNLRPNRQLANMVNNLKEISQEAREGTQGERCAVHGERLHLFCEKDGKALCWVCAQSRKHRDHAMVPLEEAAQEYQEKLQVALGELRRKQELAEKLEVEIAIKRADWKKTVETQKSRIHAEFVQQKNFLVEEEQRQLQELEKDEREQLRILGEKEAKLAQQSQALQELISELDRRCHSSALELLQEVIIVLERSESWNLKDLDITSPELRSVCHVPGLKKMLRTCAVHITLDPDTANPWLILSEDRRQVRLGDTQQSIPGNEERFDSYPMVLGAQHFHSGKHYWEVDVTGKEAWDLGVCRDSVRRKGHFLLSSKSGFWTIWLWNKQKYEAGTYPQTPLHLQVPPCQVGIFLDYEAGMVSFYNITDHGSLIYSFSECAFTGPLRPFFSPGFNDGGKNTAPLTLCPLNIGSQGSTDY
# What was measured:
# [1] = target: Flag-tagged METTL3 (Methyltransferase like 3) (human) (UniProt Q86U44); assay: co-IP; Flag-METTL3 and His-TRIM21 expressed together in MIA PaCa-2 cells; IP with anti-Flag antibody; NP40 lysis buffer
# [2] = target: Flag-tagged METTL3 (Methyltransferase like 3) (human) (UniProt Q86U44); assay: co-IP; Flag-METTL3 transfected into AsPC-1 and MIA PaCa-2 cells for 48 h; IP with anti-Flag antibody, blot with anti-TRIM21 antibody; NP40 lysis buffer
# [3] = target: endogenous METTL3 (human (endogenous in pancreatic cancer cells)) (UniProt Q86U44); assay: co-IP; endogenous proteins in human pancreatic cancer cells; IP with anti-METTL3 antibody or with anti-TRIM21 antibody; NP40 lysis buffer
# [4] = target: His-tagged TRIM21 (human) (UniProt P19474); assay: co-IP; His-tagged TRIM21 transfected into pancreatic cancer cells; METTL3 detected in the precipitate of His-TRIM21; NP40 lysis buffer
# [5] = target: endogenous TRIM21 (human (endogenous in AsPC-1 and MIA PaCa-2)) (UniProt P19474); assay: co-IP; endogenous proteins in human pancreatic cancer cells; IP with anti-METTL3 antibody or with anti-TRIM21 antibody; NP40 lysis buffer
substance,measurement,setting,value
His-tagged TRIM21 (from UniProt P19474 1-475) (enzyme),binding,[1],binds
endogenous TRIM21 (from UniProt P19474 1-475),binding,[2],binds
same,binding,[3],binds
endogenous METTL3 (from UniProt Q86U44 1-580),binding,[4],binds
same,binding,[5],binds

# From publication PMC11965403
